Source: paper PMC12293498
Results are given in words; binding and its absence hold for the method and conditions named. Binding seen in cells or lysates may run through a third protein. Some results given as binding are weak or reduced against the parent protein; the word gives no strength.

Amino acid sequences for entries named in this document (tags omitted).
UniProt P08238: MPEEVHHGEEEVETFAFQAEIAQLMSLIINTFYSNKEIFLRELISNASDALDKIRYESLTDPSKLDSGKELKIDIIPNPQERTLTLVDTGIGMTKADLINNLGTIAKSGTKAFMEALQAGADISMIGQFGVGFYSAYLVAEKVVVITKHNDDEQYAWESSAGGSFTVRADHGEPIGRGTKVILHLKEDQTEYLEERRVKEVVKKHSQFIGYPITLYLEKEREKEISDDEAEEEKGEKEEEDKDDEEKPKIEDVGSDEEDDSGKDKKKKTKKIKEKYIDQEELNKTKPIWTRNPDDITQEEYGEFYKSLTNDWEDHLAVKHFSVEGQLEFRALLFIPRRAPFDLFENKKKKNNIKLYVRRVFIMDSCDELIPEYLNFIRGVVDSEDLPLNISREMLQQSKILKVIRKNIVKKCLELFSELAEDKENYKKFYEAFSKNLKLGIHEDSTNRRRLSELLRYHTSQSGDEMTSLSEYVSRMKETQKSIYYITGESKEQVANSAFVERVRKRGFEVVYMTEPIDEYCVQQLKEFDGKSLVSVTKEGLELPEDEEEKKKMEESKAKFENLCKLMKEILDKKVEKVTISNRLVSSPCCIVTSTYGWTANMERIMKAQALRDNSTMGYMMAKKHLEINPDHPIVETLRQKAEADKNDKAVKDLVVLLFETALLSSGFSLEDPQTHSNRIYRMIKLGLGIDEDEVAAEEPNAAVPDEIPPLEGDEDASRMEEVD
UniProt Q96SC8: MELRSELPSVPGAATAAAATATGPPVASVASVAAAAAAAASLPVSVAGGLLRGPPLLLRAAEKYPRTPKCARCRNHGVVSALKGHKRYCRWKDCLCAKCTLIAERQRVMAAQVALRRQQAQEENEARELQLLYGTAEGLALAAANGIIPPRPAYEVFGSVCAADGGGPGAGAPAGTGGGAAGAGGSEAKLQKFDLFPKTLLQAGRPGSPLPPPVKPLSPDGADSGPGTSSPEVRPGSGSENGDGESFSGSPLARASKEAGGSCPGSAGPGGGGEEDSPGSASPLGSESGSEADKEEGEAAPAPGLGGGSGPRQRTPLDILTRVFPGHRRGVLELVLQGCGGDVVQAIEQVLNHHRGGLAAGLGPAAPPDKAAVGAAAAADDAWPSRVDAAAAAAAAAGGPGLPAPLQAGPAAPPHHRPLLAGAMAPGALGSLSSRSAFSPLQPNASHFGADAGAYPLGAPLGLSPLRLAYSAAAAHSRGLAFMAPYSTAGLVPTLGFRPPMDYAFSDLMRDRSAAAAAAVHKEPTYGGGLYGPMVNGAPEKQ

Assays:
[1] = molecular target: HSP90β, transfected (UniProt P08238); test: co-IP; A549 cells co-transfected with HSP90β and p53, with gradient overexpression of DMRTA2; p53 bound to HSP90β detected
[2] = molecular target: DMRTA2 overexpressed from the pCMV6-Flag-DMRTA2 plasmid (human) (UniProt Q96SC8); test: co-IP; exogenous immunoprecipitation (overexpressed DMRTA2); NP40 lysate, Protein A + G agarose, overnight at 4 °C, IgG control; cells and precipitating antibody not stated
[3] = molecular target: DMRTA2, endogenous (human (endogenous in human lung cell lines; the line is not stated)) (UniProt Q96SC8); test: co-IP; endogenous immunoprecipitation; NP40 lysate, Protein A + G agarose, overnight at 4 °C, IgG control; cells and precipitating antibody not stated

Row | Substance | binding [1] | binding [2] | binding [3]
1 | DMRTA2 overexpressed from the pCMV6-Flag-DMRTA2 plasmid (from UniProt Q96SC8 1-542) | binds |  | 
2 | HSP90β, endogenous (from UniProt P08238 1-724) |  | binds | binds
